The target in assay [1] is T1, FLAG-GADD45α (UniProt P48316).
T1 sequence: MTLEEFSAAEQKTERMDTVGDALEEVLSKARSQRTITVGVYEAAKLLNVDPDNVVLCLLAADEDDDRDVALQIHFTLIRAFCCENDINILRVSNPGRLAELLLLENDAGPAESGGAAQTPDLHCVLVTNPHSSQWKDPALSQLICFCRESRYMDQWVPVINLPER
Put plainly: co-IP; lysates of brown adipocytes transfected with pCDNA-FLAG-GADD45α; immunoprecipitated with FLAG and PPARγ antibodies, protein A/G agarose, 4 °C overnight, washed with cold PBS; blotted with FLAG and PPARγ antibodies.

Protein sequences, listed by entry. Tags and fused reporters are not part of them.
UniProt P37238: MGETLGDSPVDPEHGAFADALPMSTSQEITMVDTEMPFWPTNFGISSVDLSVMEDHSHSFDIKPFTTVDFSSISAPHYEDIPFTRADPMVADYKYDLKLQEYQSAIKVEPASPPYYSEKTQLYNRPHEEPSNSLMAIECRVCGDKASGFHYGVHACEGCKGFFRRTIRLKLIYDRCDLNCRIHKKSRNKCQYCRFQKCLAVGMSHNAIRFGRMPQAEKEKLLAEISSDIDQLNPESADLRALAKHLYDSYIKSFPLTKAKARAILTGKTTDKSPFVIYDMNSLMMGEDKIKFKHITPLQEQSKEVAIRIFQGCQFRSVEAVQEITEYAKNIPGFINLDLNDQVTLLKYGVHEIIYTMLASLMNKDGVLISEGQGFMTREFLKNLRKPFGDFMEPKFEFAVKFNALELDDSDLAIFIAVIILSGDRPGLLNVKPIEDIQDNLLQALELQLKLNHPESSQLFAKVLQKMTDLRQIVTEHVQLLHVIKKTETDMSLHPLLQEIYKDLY

Assay [2] deals with T2, GADD45α (endogenously expressed) (mouse (endogenous in brown adipocytes)) (UniProt P48316).
T2 sequence: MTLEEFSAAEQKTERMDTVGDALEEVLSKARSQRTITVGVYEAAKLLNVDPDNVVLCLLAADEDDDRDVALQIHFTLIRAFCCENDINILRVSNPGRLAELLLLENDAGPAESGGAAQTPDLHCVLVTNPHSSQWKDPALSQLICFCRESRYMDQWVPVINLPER
Nature of the assay: co-IP; endogenous proteins; lysates of differentiated brown adipocytes immunoprecipitated with GADD45α or PPARγ antibodies, protein A/G agarose, 4 °C overnight, washed with cold PBS; blotted with these antibodies.

Assay [3] addresses PPARγ (mouse (endogenous in brown adipocytes)) (UniProt P37238). Put plainly: co-IP; lysates of brown adipocytes transfected with pCDNA-FLAG-GADD45α; immunoprecipitated with FLAG and PPARγ antibodies, protein A/G agarose, 4 °C overnight, washed with cold PBS; blotted with FLAG and PPARγ antibodies.

For two molecules, binding results are on record in paper PMC7385159.

No constants are given. Whether binding was seen depends on the method and setting. Binding seen in cells or lysates may run through a third protein. Some binding calls cover weakened binding; strength is not graded here. For part of these data: Where a sequence is shown, tags or fusion partners need not be part of it.

As for PPARγ (from UniProt P37238 1-505), the binding entry in assay [1] and in assay [2] was “binds” throughout.

B1: FLAG-GADD45α (protein, UniProt P48316 1-165)
chain: MTLEEFSAAEQKTERMDTVGDALEEVLSKARSQRTITVGVYEAAKLLNVDPDNVVLCLLAADEDDDRDVALQIHFTLIRAFCCENDINILRVSNPGRLAELLLLENDAGPAESGGAAQTPDLHCVLVTNPHSSQWKDPALSQLICFCRESRYMDQWVPVINLPER
Turning to B1, in assay [3], the binding result was “binds”.
